These are yes or no findings as the source states them, for the method shown. In cells and extracts the contact can be indirect. A yes stands for co-enrichment or nearness to the bait. Other partners may have been found. For part of these data: No binding means not detected with the bait.
Key:
[1] = molecular target: TbCIA1-V5 (Trypanosoma brucei) (UniProt Q581A6); assay: affinity purification with mass spectrometry; V5 co-IP/MS from cryo-ground PCF cells; anti-V5 DynaBeads, 2 h at 4°C, 20 mM HEPES pH 7.4, 150 mM Na-citrate, 0.1% Triton X-100
[2] = molecular target: TbCIA1-V5 (Trypanosoma brucei) (UniProt Q581A6); assay: affinity purification with mass spectrometry; V5 co-IP/MS from cryo-ground BSF cells; anti-V5 DynaBeads, 2 h at 4°C, 20 mM HEPES pH 7.4, 150 mM Na-citrate, 0.1% Triton X-100
[3] = molecular target: PTP-TbCIA1 (Trypanosoma brucei) (UniProt Q581A6); assay: affinity purification with mass spectrometry; tandem affinity purification (IgG Sepharose, TEV elution, anti-Protein C matrix) of in situ PTP-tagged baits from PCF lysates in TLB buffer; gel sections analysed by LC/MS; mock purification from wild type PCF as control
[4] = molecular target: TbCIA2A-V5 (Trypanosoma brucei) (UniProt Q38DX6); assay: affinity purification with mass spectrometry; V5 co-IP/MS from cryo-ground PCF cells; anti-V5 DynaBeads, 2 h at 4°C, 20 mM HEPES pH 7.4, 150 mM Na-citrate, 0.1% Triton X-100
[5] = molecular target: TbCIA2A-V5 (Trypanosoma brucei) (UniProt Q38DX6); assay: affinity purification with mass spectrometry; V5 co-IP/MS from cryo-ground BSF cells; anti-V5 DynaBeads, 2 h at 4°C, 20 mM HEPES pH 7.4, 150 mM Na-citrate, 0.1% Triton X-100
[6] = molecular target: PTP-TbCIA1 (Trypanosoma brucei) (UniProt Q581A6); assay: affinity purification with mass spectrometry; combined TAP/MS and V5 co-IP/MS experiments; which of them gave the hit is not given

Row | Substance | binding [1] | binding [2] | binding [3] | binding [4] | binding [5] | binding [6]
1 | TbCIA2A (from UniProt Q38DX6) | binds | binds | binds |  |  | 
2 | TbCIA2B (from UniProt Q57YF8) | binds | binds | binds | no binding | no binding | 
3 | catalytic subunit of Pol δ (TbPOLD1) (from UniProt Q585S7) |  |  |  |  |  | binds

From article PMC6211773
